Results: article PMC11545931
No constants are given. Whether binding was seen depends on the method and setting. In cells and extracts the contact can be indirect. Some entries that bind do so weakly or less than the wild type.

Protein sequences, listed by entry. Tags and fused reporters are not part of them.
UniProt Q39026: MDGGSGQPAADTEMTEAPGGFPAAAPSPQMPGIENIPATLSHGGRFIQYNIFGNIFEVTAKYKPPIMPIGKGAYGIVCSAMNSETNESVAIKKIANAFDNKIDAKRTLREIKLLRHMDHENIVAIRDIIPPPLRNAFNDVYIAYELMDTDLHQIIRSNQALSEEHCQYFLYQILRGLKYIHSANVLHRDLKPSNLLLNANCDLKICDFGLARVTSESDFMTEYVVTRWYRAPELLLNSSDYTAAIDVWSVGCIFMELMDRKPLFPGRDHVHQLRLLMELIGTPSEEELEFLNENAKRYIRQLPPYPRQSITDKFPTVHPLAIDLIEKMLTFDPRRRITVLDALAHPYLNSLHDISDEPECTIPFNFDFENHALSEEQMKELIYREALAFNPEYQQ

Legend:
[1] = target: T1, MPK3, Arabidopsis mitogen-activated protein kinase 3 (Arabidopsis thaliana) (UniProt Q39023); assay: split reporter; BiFC with split YFP; both proteins transiently co-expressed with P19 in N. benthamiana leaf epidermal cells by agroinfiltration; YFP fluorescence by confocal microscopy three days after infiltration
T1 sequence: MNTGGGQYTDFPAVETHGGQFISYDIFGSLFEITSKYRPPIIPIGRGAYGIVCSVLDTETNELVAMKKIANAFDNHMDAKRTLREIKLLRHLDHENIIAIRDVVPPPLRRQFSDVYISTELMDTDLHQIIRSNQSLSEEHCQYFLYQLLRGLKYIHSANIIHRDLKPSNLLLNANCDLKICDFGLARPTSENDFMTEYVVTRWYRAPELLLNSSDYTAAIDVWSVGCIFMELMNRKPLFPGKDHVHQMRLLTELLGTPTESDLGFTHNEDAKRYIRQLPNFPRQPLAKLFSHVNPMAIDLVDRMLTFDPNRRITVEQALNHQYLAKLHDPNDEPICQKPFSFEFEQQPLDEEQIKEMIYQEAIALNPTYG

[2] = target: MPK6, Arabidopsis mitogen-activated protein kinase 6 (Arabidopsis thaliana) (UniProt Q39026); assay: as above

binding [1]: binds
binding [2]: binds
B1: WLIM2A (At2g39900), Arabidopsis LIM protein (protein, UniProt O04193 1-200)
chain: MSFTGTQQKCRACEKTVYPVELLSADGISYHKACFKCSHCKSRLQLSNYSSMEGVVYCRPHFEQLFKESGSFSKNFQSPAKPLTDKPTPELNRTPSRLAGMFSGTQDKCATCTKTVYPIEKVTVESQCYHKSCFKCSHGGCPISPSNYAALEGILYCKHHFAQLFKEKGSYNHLIKSASIKRATAAATAAAAAVAAVPES
